Results are given in words; binding and its absence hold for the method and conditions named. Binding seen in cells or lysates may run through a third protein. Some results given as binding are weak or reduced against the parent protein; the word gives no strength.
Molecular target: cyclin B1 protein (UniProt P14635)
Experiment: co-IP; preliminary data, data not shown; no details of cells, bait or antibodies told

Protein sequences, listed by entry. Tags and fused reporters are not part of them.
UniProt P14635: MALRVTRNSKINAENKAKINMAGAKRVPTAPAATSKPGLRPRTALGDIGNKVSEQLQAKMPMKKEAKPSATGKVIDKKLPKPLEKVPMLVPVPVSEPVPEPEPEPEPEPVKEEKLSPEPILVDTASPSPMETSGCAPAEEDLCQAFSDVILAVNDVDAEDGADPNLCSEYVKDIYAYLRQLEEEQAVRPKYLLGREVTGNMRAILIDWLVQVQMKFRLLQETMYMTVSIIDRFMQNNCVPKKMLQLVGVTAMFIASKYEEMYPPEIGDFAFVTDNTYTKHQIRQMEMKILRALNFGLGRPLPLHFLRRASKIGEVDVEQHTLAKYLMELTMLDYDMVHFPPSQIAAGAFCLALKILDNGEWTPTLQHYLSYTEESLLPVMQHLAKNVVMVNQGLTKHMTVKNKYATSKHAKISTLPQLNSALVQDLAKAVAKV
UniProt Q6ZVD7: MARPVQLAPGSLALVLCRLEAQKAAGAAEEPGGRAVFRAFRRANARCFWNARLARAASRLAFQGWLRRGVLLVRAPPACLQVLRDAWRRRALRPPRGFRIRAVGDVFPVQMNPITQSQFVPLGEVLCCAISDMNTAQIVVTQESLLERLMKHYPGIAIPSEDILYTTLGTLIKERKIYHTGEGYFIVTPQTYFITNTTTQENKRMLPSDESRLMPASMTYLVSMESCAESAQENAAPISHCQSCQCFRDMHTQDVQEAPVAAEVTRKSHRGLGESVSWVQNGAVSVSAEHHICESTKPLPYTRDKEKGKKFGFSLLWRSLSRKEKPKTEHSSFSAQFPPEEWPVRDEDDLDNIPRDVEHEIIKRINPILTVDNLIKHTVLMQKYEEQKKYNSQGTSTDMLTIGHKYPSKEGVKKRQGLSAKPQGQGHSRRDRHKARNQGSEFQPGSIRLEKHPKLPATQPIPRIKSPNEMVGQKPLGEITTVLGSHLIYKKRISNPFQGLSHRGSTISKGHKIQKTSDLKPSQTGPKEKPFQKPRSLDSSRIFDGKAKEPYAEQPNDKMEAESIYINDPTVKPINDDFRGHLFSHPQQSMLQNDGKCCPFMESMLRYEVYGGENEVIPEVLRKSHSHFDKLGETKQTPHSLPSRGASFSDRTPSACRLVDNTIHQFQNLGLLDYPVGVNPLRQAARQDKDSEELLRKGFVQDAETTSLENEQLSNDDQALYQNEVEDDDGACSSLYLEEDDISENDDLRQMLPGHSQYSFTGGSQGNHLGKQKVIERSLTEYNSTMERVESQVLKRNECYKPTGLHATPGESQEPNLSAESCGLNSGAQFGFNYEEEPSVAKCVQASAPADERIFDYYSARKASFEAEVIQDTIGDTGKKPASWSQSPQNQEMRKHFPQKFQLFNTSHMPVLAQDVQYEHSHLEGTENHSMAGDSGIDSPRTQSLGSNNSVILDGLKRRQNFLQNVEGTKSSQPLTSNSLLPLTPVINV

binding: binds
Substance: Storkhead box 1A (from UniProt Q6ZVD7 1-989)
